# Reference: publication PMC11742723, “The clinical-stage drug BTZ-043 accumulates in murine tuberculosis lesions and efficiently acts against Mycobacterium tuberculosis” (Nature Communications, 2025)
# Where “and” joins values, the source holds several entries; their conditions need not be identical. Equal values may be shown once. Further values from the same series stand in other lists.
# System: Caco-2 cell monolayers
# Assay: In vitro permeability assay in Caco-2 monolayers
smiles,measurement,setting,value
"NC(=O)c1cnccn1 [PZA, pyrazinamide]",Calculated Amount,"PZA (25 µg mL^-1), direction AB, compartment baso, time 30 min",1333.17
same,Calculated Amount,"PZA (25 µg mL^-1), direction BA, compartment baso, time 0 min",26413 and 25844.5 and 26583.2
same,Calculated Amount,"PZA (25 µg mL^-1), direction BA, compartment baso, time 120 min",20560.3 and 20501.2
same,Calculated Amount,"PZA (40 µg mL^-1), direction AB, compartment api, time 0 min",28976.4 and 28064.3 and 31284.4
same,Calculated Amount,"PZA (40 µg mL^-1), direction AB, compartment baso, time 0 min",0
same,Calculated Amount,"PZA (40 µg mL^-1), direction AB, compartment baso, time 60 min",4853.22 and 4349.7 and 4275.28
same,Calculated Amount,"PZA (40 µg mL^-1), direction AB, compartment baso, time 90 min",5770.39 and 5601.9 and 5436.88
same,Calculated Amount,"PZA (40 µg mL^-1), direction AB, compartment baso, time 120 min",4977.56 and 4113.08 and 4440.77
same,Calculated Amount,"PZA (40 µg mL^-1), direction BA, compartment api, time 30 min",5459.68 and 4472.97 and 5086.94
same,Calculated Amount,"PZA (40 µg mL^-1), direction BA, compartment api, time 60 min",9734.39 and 8339.56 and 9591.97
same,Calculated Amount,"PZA (40 µg mL^-1), direction BA, compartment api, time 90 min",11611.6 and 10257.1 and 12377.9
same,Calculated Amount,"PZA (40 µg mL^-1), direction BA, compartment api, time 120 min",12904.2 and 13264.5 and 15050
same,Calculated Amount,"PZA (40 µg mL^-1), direction BA, compartment baso, time 0 min",31408.1 and 25372.8 and 29233.4
